Laboratory results taken from article PMC9770967, “Native holdup (nHU) to measure binding affinities from cell extracts” (Science Advances, 2022).

Sequences of proteins named here, by UniProt entry; tags and fusion partners are left off. Residues count along the entry.
SCRIB PDZ_1 domain bait (Q14160, residues 728-815): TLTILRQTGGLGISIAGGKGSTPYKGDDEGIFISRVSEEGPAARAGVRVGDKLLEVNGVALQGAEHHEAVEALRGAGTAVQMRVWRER
SCRIB PDZ_2 domain bait (Q14160, residues 862-950): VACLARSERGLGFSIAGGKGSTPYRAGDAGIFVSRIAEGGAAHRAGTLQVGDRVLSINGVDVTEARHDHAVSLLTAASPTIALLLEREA
UniProt Q12959, residues 319-405: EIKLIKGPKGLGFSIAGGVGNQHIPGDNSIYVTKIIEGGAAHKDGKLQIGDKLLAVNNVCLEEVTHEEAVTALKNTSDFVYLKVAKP

Legend:
Experiment in all cases: native holdup (nHU) with label-free quantitative mass spectrometry; single-point (~10 μM bait); isolated PDZ domain baits fused to biotinylated MBP on streptavidin resin, biotinylated-His6-MBP as control; total cell extract as analyte (Jurkat, two series on two instruments, the second with six PDZ baits; SNX27_PDZ also with SH-SY5Y); 4°C, 2 hours; apparent affinities; only the target purified
SCRIB PDZ_2 domain bait = SCRIB PDZ_2 domain bait (UniProt Q14160)
[1] = molecular target: discs large MAGUK scaffold protein 1 (DLG1) PDZ_2 domain bait (UniProt Q12959)
SCRIB PDZ_1 domain bait = SCRIB PDZ_1 domain bait (UniProt Q14160)
[2] = molecular target: T1, Tax1 binding protein 3 (TAX1BP3) PDZ domain bait (UniProt O14907)
T1 sequence: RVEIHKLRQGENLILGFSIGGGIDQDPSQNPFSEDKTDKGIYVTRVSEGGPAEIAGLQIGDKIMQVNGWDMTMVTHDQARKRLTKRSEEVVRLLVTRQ

Measured: binding

B1: monocarboxylate transporter 1 (SLC16A1) (protein, UniProt P53985 1-500)
chain: MPPAVGGPVGYTPPDGGWGWAVVIGAFISIGFSYAFPKSITVFFKEIEGIFHATTSEVSWISSIMLAVMYGGGPISSILVNKYGSRIVMIVGGCLSGCGLIAASFCNTVQQLYVCIGVIGGLGLAFNLNPALTMIGKYFYKRRPLANGLAMAGSPVFLCTLAPLNQVFFGIFGWRGSFLILGGLLLNCCVAGALMRPIGPKPTKAGKDKSKASLEKAGKSGVKKDLHDANTDLIGRHPKQEKRSVFQTINQFLDLTLFTHRGFLLYLSGNVIMFFGLFAPLVFLSSYGKSQHYSSEKSAFLLSILAFVDMVARPSMGLVANTKPIRPRIQYFFAASVVANGVCHMLAPLSTTYVGFCVYAGFFGFAFGWLSSVLFETLMDLVGPQRFSSAVGLVTIVECCPVLLGPPLLGRLNDMYGDYKYTYWACGVVLIISGIYLFIGMGINYRLLAKEQKANEQKKESKEEETSIDVAGKPNEVTKAAESPDQKDTDGGPKEEESPV
no binding (tested: ~10 μM bait): all assays above

B2: neutral amino acid transporter B(0) (SLC1A5) (protein, UniProt Q15758 1-541)
chain: MVADPPRDSKGLAAAEPTANGGLALASIEDQGAAAGGYCGSRDQVRRCLRANLLVLLTVVAVVAGVALGLGVSGAGGALALGPERLSAFVFPGELLLRLLRMIILPLVVCSLIGGAASLDPGALGRLGAWALLFFLVTTLLASALGVGLALALQPGAASAAINASVGAAGSAENAPSKEVLDSFLDLARNIFPSNLVSAAFRSYSTTYEERNITGTRVKVPVGQEVEGMNILGLVVFAIVFGVALRKLGPEGELLIRFFNSFNEATMVLVSWIMWYAPVGIMFLVAGKIVEMEDVGLLFARLGKYILCCLLGHAIHGLLVLPLIYFLFTRKNPYRFLWGIVTPLATAFGTSSSSATLPLMMKCVEENNGVAKHISRFILPIGATVNMDGAALFQCVAAVFIAQLSQQSLDFVKIITILVTATASSVGAAGIPAGGVLTLAIILEAVNLPVDHISLILAVDWLVDRSCTVLNVEGDALGAGLLQNYVDRTESRSTEPELIQVKSELPLDPLPVPTEEGNPLLKHYRGPAGDATVASEKESVM
no binding (tested: ~10 μM bait): all assays above

Results are given in words; binding and its absence hold for the method and conditions named. Binding seen in cells or lysates may run through a third protein. Here binding means that the protein was enriched with, or labelled near, the bait; the list need not be complete. A no says only that the protein was not detected with the bait.
